{"sequences": {"note": "The chains behind the UniProt entries cited, without tags or fusion partners. Where a name states a change or a piece, a line headed by the entry shows the natural chain unless it says otherwise.", "UniProt Q8K1M6, whole entry": "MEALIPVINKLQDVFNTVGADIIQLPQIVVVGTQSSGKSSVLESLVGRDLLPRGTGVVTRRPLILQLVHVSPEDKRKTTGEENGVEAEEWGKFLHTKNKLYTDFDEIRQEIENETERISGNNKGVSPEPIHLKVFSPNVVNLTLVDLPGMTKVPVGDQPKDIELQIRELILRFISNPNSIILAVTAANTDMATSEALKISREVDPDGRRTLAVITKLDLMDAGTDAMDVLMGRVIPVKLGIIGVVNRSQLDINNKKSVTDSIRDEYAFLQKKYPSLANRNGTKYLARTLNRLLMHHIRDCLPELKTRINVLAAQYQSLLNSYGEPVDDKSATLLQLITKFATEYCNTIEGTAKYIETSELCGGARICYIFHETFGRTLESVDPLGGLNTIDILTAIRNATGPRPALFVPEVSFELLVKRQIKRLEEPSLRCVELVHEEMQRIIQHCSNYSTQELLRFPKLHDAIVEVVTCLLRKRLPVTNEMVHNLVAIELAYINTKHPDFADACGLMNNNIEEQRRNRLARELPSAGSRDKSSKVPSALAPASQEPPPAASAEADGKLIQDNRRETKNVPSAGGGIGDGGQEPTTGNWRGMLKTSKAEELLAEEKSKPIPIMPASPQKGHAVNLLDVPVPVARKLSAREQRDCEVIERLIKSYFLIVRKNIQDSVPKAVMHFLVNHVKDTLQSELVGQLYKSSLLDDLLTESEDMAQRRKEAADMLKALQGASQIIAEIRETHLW", "UniProt Q8CIG8, whole entry": "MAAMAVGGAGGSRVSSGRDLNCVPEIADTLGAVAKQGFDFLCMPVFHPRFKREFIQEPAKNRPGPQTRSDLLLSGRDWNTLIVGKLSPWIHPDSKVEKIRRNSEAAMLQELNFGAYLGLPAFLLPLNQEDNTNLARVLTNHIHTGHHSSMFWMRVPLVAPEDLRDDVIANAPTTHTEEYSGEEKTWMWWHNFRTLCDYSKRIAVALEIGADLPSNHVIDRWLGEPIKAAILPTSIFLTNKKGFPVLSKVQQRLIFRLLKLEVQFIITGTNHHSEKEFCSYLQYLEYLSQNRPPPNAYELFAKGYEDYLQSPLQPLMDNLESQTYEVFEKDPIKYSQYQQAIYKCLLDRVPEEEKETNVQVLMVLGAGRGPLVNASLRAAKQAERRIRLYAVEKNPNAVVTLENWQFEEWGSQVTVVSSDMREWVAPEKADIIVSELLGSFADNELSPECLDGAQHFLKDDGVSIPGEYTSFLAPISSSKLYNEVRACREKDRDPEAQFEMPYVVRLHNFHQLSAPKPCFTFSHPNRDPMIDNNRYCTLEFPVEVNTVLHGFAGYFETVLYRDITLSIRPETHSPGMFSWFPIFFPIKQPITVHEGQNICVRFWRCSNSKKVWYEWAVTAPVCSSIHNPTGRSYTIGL", "UniProt Q8K441": "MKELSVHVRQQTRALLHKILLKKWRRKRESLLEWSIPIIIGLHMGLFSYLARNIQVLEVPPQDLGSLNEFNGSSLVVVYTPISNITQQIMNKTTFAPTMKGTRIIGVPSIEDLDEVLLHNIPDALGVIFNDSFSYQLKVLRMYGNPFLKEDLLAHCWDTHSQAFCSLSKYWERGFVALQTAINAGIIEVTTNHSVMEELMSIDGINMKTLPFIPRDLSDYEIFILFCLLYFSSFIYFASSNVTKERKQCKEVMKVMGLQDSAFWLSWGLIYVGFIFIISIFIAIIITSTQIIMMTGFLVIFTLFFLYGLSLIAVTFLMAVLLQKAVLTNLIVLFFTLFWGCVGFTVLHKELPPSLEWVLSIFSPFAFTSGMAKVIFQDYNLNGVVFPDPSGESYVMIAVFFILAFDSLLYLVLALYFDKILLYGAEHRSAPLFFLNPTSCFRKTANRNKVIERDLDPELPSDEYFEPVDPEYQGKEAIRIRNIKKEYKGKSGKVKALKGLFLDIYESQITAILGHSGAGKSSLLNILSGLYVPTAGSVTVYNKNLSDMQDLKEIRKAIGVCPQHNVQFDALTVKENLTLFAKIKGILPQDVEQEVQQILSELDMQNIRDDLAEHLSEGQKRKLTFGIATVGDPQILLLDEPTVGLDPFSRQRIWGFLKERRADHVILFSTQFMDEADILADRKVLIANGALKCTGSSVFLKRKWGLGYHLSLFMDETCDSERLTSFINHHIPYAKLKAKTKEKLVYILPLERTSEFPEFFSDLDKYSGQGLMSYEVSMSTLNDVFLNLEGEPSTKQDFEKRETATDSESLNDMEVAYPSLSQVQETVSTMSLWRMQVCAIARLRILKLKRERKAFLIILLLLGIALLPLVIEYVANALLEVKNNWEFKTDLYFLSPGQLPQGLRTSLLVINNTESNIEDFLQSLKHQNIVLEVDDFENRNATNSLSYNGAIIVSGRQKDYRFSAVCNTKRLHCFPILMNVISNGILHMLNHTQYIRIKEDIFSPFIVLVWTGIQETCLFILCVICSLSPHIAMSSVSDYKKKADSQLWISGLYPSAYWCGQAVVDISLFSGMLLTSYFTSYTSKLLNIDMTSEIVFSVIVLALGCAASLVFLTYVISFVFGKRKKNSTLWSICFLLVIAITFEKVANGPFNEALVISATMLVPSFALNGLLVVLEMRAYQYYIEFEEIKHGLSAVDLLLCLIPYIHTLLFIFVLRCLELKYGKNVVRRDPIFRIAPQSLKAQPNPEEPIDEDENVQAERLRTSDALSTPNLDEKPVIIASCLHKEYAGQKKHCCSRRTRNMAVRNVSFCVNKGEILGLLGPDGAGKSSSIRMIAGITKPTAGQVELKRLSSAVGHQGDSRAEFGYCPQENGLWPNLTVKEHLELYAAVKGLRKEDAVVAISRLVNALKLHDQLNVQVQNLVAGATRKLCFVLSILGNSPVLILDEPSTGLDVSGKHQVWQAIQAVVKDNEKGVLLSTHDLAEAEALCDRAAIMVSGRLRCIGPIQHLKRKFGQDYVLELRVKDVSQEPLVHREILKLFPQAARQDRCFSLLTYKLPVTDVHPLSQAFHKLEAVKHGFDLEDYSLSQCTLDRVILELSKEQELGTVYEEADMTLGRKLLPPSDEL", "UniProt Q8VCM4": "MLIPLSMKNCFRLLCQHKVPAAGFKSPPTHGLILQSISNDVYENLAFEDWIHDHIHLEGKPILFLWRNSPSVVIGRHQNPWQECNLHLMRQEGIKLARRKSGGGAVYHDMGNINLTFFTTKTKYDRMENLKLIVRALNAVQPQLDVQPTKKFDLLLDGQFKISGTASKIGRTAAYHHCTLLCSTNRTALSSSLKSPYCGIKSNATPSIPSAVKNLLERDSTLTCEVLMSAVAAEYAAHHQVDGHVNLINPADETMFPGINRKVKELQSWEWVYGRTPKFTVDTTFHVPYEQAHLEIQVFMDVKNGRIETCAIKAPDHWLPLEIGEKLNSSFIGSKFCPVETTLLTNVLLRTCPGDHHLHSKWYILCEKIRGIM", "UniProt Q8CIB5": "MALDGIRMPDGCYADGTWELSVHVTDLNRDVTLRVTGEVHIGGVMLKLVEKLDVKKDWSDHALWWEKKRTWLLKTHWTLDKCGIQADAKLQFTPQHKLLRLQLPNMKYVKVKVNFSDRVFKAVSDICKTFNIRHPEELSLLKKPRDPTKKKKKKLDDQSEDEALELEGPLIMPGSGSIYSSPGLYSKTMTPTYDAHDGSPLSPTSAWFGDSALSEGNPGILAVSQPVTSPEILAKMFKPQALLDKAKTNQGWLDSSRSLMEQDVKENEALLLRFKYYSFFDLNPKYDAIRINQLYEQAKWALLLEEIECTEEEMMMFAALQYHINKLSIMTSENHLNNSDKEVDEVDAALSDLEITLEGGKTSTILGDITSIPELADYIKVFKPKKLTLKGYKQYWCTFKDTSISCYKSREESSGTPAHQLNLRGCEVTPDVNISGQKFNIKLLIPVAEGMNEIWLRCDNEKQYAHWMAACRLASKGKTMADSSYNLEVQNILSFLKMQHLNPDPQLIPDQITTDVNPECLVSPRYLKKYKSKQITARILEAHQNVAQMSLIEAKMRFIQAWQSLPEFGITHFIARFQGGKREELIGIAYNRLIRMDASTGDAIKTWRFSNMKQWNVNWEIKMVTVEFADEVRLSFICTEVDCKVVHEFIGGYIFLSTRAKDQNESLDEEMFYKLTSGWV", "UniProt Q8K268": "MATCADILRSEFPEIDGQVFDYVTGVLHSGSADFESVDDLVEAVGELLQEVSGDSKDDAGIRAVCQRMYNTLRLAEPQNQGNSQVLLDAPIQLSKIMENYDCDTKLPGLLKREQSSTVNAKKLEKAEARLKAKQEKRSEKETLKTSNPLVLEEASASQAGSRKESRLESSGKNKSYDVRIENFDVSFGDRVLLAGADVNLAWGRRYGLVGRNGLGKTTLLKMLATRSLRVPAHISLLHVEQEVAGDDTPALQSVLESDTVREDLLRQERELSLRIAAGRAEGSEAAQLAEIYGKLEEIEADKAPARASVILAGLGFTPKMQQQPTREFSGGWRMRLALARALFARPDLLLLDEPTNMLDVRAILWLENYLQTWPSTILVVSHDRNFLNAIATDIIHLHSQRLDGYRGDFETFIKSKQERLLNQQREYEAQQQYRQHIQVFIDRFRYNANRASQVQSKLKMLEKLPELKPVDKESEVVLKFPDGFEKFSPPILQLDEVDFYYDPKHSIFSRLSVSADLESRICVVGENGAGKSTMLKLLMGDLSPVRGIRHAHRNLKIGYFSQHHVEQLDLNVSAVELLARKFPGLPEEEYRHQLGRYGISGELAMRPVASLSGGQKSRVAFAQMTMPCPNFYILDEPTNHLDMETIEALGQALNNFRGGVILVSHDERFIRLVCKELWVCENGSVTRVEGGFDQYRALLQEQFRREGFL", "UniProt Q8K199": "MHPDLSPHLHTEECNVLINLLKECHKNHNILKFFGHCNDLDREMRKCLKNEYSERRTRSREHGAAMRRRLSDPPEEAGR", "UniProt Q8VC28": "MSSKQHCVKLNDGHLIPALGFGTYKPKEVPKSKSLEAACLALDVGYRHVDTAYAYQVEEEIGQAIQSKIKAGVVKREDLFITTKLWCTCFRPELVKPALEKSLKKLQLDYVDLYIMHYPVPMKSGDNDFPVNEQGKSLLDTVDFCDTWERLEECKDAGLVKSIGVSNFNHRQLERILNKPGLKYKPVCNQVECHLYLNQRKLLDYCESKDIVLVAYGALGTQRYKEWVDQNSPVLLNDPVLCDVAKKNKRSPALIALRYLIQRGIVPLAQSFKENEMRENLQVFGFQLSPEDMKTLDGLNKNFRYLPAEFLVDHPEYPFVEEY", "UniProt Q8K4Z3": "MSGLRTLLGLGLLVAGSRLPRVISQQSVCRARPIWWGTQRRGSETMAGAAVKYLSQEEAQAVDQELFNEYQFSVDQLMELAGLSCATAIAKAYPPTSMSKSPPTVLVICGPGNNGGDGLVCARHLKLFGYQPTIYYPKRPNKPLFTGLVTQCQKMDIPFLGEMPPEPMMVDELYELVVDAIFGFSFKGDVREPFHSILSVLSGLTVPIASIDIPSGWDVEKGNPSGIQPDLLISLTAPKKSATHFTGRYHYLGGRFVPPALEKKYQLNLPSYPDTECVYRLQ", "UniProt Q8K2T4": "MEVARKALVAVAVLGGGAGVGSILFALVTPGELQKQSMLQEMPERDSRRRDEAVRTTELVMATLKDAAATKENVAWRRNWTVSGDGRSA", "UniProt Q8VCA8": "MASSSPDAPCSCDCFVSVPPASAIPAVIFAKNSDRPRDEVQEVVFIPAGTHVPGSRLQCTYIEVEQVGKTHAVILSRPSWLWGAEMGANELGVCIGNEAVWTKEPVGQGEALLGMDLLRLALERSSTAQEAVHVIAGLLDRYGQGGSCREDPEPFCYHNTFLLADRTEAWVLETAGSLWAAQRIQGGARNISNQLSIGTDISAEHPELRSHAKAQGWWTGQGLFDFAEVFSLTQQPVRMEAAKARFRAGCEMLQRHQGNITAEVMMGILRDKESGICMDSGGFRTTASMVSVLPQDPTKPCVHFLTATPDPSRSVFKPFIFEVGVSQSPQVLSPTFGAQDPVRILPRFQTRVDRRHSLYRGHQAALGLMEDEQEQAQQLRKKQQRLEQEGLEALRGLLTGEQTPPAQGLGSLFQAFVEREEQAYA", "UniProt Q8VCI0": "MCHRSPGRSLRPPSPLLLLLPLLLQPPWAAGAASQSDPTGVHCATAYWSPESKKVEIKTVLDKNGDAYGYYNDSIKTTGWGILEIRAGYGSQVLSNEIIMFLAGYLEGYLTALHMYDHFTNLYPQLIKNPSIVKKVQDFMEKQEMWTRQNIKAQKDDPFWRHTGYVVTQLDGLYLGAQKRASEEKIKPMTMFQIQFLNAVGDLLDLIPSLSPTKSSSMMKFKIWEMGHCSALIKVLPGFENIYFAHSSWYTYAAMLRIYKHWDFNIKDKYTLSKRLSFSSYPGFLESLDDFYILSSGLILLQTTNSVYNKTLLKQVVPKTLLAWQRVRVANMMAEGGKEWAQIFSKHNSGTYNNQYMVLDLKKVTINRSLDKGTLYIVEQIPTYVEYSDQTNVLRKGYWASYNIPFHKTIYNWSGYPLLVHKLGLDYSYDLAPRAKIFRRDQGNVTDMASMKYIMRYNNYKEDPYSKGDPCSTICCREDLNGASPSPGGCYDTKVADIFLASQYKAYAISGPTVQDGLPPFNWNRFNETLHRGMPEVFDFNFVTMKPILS"}, "source": "the supplement of paper PMC12819154", "about": "“High-throughput peptide-centric local stability assay extends protein–ligand identification to membrane proteins, tissues and bacteria” (Nature Structural & Molecular Biology, 2025)", "note": "The other results are listed elsewhere or left out. Most entries show no effect beyond the scatter of the controls.", "data": [{"compound": "CN[C@@H]1C[C@H]2O[C@@](C)([C@@H]1OC)n1c3ccccc3c3c4c(c5c6ccccc6n2c5c31)C(=O)NC4 [staurosporine]", "test": "log2 fold change of pooled soluble protein (PISA), ligand vs vehicle (log2 ratio); higher = more thermally stabilized", "conditions": "ligand concentration: 20 uM; assay format: PISA pool 52.9/55.5/58.6 C", "values": [{"target": "UniProt Q8K1M6", "log2 fold change of pooled soluble protein": 0.253}, {"target": "UniProt Q8K2I4", "log2 fold change of pooled soluble protein": 0.0165}, {"target": "UniProt Q8CIG8", "log2 fold change of pooled soluble protein": -0.101}, {"target": "UniProt Q8R3C1", "log2 fold change of pooled soluble protein": 0.0569}, {"target": "UniProt Q8K4H1", "log2 fold change of pooled soluble protein": -0.225}, {"target": "UniProt Q8K441", "log2 fold change of pooled soluble protein": 0.0658}, {"target": "UniProt Q8VCM4", "log2 fold change of pooled soluble protein": -0.168}, {"target": "UniProt Q8K0H1", "log2 fold change of pooled soluble protein": 0.0323}, {"target": "UniProt Q8K2I3", "log2 fold change of pooled soluble protein": -0.0398}, {"target": "UniProt Q8K2H2", "log2 fold change of pooled soluble protein": -0.218}, {"target": "UniProt Q8CIB5", "log2 fold change of pooled soluble protein": -0.06}, {"target": "UniProt Q8K1N1", "log2 fold change of pooled soluble protein": -0.0327}, {"target": "UniProt Q8R1K4", "log2 fold change of pooled soluble protein": 0.0812}, {"target": "UniProt Q8K2K6", "log2 fold change of pooled soluble protein": -0.0309}, {"target": "UniProt Q8R015", "log2 fold change of pooled soluble protein": -0.0286}, {"target": "UniProt Q8R059", "log2 fold change of pooled soluble protein": -0.0281}, {"target": "UniProt Q8K268", "log2 fold change of pooled soluble protein": -0.34}, {"target": "UniProt Q8R1V4", "log2 fold change of pooled soluble protein": -0.0486}, {"target": "UniProt Q8K199", "log2 fold change of pooled soluble protein": -0.2}, {"target": "UniProt Q8K2C6", "log2 fold change of pooled soluble protein": -0.173}, {"target": "UniProt Q8VCC2", "log2 fold change of pooled soluble protein": -0.0371}, {"target": "UniProt Q8JZZ6", "log2 fold change of pooled soluble protein": -0.0287}, {"target": "UniProt Q8R3P9", "log2 fold change of pooled soluble protein": 0.019}, {"target": "UniProt Q8VC28", "log2 fold change of pooled soluble protein": 0.0885}, {"target": "UniProt Q8K4Z3", "log2 fold change of pooled soluble protein": -0.0156}, {"target": "UniProt Q8K2T4", "log2 fold change of pooled soluble protein": 0.223}, {"target": "UniProt Q8R404", "log2 fold change of pooled soluble protein": 0.199}, {"target": "UniProt Q8K182", "log2 fold change of pooled soluble protein": 0.127}, {"target": "UniProt Q8VCA8", "log2 fold change of pooled soluble protein": 0.12}, {"target": "UniProt Q8R3D1", "log2 fold change of pooled soluble protein": 0.272}, {"target": "UniProt Q8VCI0", "log2 fold change of pooled soluble protein": -0.0331}, {"target": "UniProt Q8CHQ9", "log2 fold change of pooled soluble protein": -0.0528}, {"target": "UniProt Q8K0L2", "log2 fold change of pooled soluble protein": -0.00267}, {"target": "UniProt Q8VBW6", "log2 fold change of pooled soluble protein": -0.147}, {"target": "UniProt Q8JZX4", "log2 fold change of pooled soluble protein": -0.234}, {"target": "UniProt Q8VCF0", "log2 fold change of pooled soluble protein": -0.168}, {"target": "UniProt Q8K0D5", "log2 fold change of pooled soluble protein": 0.068}]}]}
